Measurements from US11629171B2 (POLYPHOR AG, priority 2017, dated 2023).
Some peptides are written in HELM: one residue between dots, names in brackets for other building blocks, links after the first $.

Experiment: general procedure: Fmoc solid-phase peptide synthesis; 2-chlorotrityl resin (polystyrene crosslinked with 1-5% divinylbenzene)
Conditions: whole synthesis, HPLC-MS

Substance	final HPLC purity [%]
PEPTIDE1{[ac].V.[Orn].Y.S.E.[D-Dab].[Hse].W.S.[tBuGly].[dE]}|PEPTIDE2{[Dab].T.[Dap].[Dab].[Dab].[dL].L.[Dab].[Dab].T}$PEPTIDE1,PEPTIDE1,3:R3-12:R2|PEPTIDE1,PEPTIDE2,6:R3-1:R1|PEPTIDE2,PEPTIDE2,4:R3-10:R2$$$V2.0	77
PEPTIDE1{[ac].V.[Orn].Y.S.E.[D-Dab].[Hse].W.S.[tBuGly].[dK]}|PEPTIDE2{[Dab].T.[Dap].[Dab].[Dab].[dL].L.[Dab].[Dab].T}$PEPTIDE1,PEPTIDE1,3:R3-12:R2|PEPTIDE1,PEPTIDE2,6:R3-1:R1|PEPTIDE2,PEPTIDE2,4:R3-10:R2$$$V2.0	80
PEPTIDE1{[ac].V.[Orn].Y.S.E.[D-Dab].[Hse].W.S.[tBuGly].[dN]}|PEPTIDE2{[Dab].T.[Dap].[Dab].[Dab].[dL].L.[Dab].[Dab].T}$PEPTIDE1,PEPTIDE1,3:R3-12:R2|PEPTIDE1,PEPTIDE2,6:R3-1:R1|PEPTIDE2,PEPTIDE2,4:R3-10:R2$$$V2.0	83
PEPTIDE1{[ac].V.[Orn].Y.S.E.[D-Dab].[Hse].W.S.[tBuGly].[dQ]}|PEPTIDE2{[Dab].T.[Dap].[Dab].[Dab].[dL].L.[Dab].[Dab].T}$PEPTIDE1,PEPTIDE1,3:R3-12:R2|PEPTIDE1,PEPTIDE2,6:R3-1:R1|PEPTIDE2,PEPTIDE2,4:R3-10:R2$$$V2.0	76
PEPTIDE1{[ac].V.[Orn].Y.S.E.[D-Dab].[Hse].W.S.[tBuGly].[dT]}|PEPTIDE2{[Dab].T.[Dap].[Dab].[Dab].[dL].L.[Dab].[Dab].T}$PEPTIDE1,PEPTIDE1,3:R3-12:R2|PEPTIDE1,PEPTIDE2,6:R3-1:R1|PEPTIDE2,PEPTIDE2,4:R3-10:R2$$$V2.0	82
PEPTIDE1{[ac].V.[Orn].Y.S.E.[D-Dab].[Hse].W.S.[tBuGly].[dV]}|PEPTIDE2{[Dab].T.[Dap].[Dab].[Dab].[dL].L.[Dab].[Dab].T}$PEPTIDE1,PEPTIDE1,3:R3-12:R2|PEPTIDE1,PEPTIDE2,6:R3-1:R1|PEPTIDE2,PEPTIDE2,4:R3-10:R2$$$V2.0	83
PEPTIDE1{[ac].V.[Orn].Y.S.E.[D-Dab].[Hse].W.S.[tBuGly].[dY]}|PEPTIDE2{[Dab].T.[Dap].[Dab].[Dab].[dL].L.[Dab].[Dab].T}$PEPTIDE1,PEPTIDE1,3:R3-12:R2|PEPTIDE1,PEPTIDE2,6:R3-1:R1|PEPTIDE2,PEPTIDE2,4:R3-10:R2$$$V2.0	83
PEPTIDE1{[ac].V.[Orn].Y.T.E.[D-Dab].[Hse].W.S.[tBuGly].[dT]}|PEPTIDE2{[Dab].T.[Dap].[Dab].[Dab].[dL].L.[Dab].[Dab].T}$PEPTIDE1,PEPTIDE1,3:R3-12:R2|PEPTIDE1,PEPTIDE2,6:R3-1:R1|PEPTIDE2,PEPTIDE2,4:R3-10:R2$$$V2.0	74
PEPTIDE1{[ac].V.[Orn].Y.[Dab].E.[D-Dab].[Hse].W.S.V.[dT]}|PEPTIDE2{[Dab].T.[Dap].[Dab].[Dab].[dL].L.[Dab].[Dab].T}$PEPTIDE1,PEPTIDE1,3:R3-12:R2|PEPTIDE1,PEPTIDE2,6:R3-1:R1|PEPTIDE2,PEPTIDE2,4:R3-10:R2$$$V2.0	95
PEPTIDE1{[ac].V.[Orn].Y.[Dab].E.[D-Dab].[Hse].W.S.[tBuGly].[dT]}|PEPTIDE2{[Dab].T.[Dap].[Dab].[Dab].[dL].L.[Dab].[Dab].T}$PEPTIDE1,PEPTIDE1,3:R3-12:R2|PEPTIDE1,PEPTIDE2,6:R3-1:R1|PEPTIDE2,PEPTIDE2,4:R3-10:R2$$$V2.0	95
PEPTIDE1{[ac].V.[Orn].Y.[Dap].E.[D-Dab].[Dab].W.S.V.[dT]}|PEPTIDE2{[Dab].T.[Dap].[Dab].[Dab].[dL].L.[Dab].[Dab].T}$PEPTIDE1,PEPTIDE1,3:R3-12:R2|PEPTIDE1,PEPTIDE2,6:R3-1:R1|PEPTIDE2,PEPTIDE2,4:R3-10:R2$$$V2.0	76
